Measured values: the supplement of paper PMC10735217
The other results are listed elsewhere or left out. This data set is noisy: repeats of one test often differ as much as different tests do.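 In a drug-repurposing library screen, luminescence reads luciferase driven by eight TEAD-binding elements, stably integrated into human kidney-derived cells. Compounds scoring over five robust Z scores above the plate mean are called hits.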

System: HEK293A TEAD-LUC reporter
Assay: TEAD-luciferase reporter activity (YAP activation), robust Z score vs plate; higher = stronger YAP/TEAD activation
Settings: 24 h

Row | Compound | TEAD-luciferase reporter activity (compound concentration: 200 nM) | TEAD-luciferase reporter activity (compound concentration: 2 uM) | TEAD-luciferase reporter activity (compound concentration: 10 uM)
1 | CCOC(=O)C1CCN(c2nc(N(C)S(=O)(=O)c3ccccc3)ccc2[N+](=O)[O-])CC1 | inactive: 0.692 | inactive: 0.403 | inactive: 1.37
2 | O=C(O)c1cc2ccccc2s1 | inactive: -0.0687 | inactive: -2.74 | inactive: -0.869
3 | NC(=O)c1ncn2c(=O)n(CCCl)nnc12 [Mitozolomide] | inactive: -0.78 | inactive: -1.57 | inactive: 3.52
4 | CSCC[C@H](NC(=O)[C@H](CC(C)C)NC(=O)[C@@H](Cc1c[nH]c2ccccc12)NC(=O)[C@H](Cc1ccccc1)N(C)C(=O)[C@@H](Cc1c[nH]c2ccccc12)NC(=O)[C@@H](N)CCCNC(=N)N)C(N)=O [Antagonist-G] | inactive: -0.792 | inactive: 1.12 | inactive: -1.08
5 | O=C(O)Cc1cccc2c(=O)cc(-c3ccccc3)oc12 [Mitoflaxone] | inactive: -0.893 | inactive: -0.641 | inactive: -1.47
6 | CO[C@H]1CC[C@H](N(c2cc(C3=CCCCC3)sc2C(=O)O)C(=O)[C@H]2CC[C@H](C)CC2)CC1 | inactive: -0.324 | inactive: 0.597 | inactive: -2.97
7 | NC(=O)[C@@H](CCC(F)(F)F)N(Cc1ccc(-c2ncon2)cc1F)S(=O)(=O)c1ccc(Cl)cc1 [avagacestat] | inactive: -1.19 | inactive: -1.24 | inactive: 0.263
8 | CCOC(CN1CCN(c2ccccc2OC)CC1)c1cccnc1 (stereo unspecified) | inactive: -1.13 | inactive: 1.5 | inactive: 2.92
9 | CCN(CC)CCNC(=O)c1cc(C#N)c(Cl)cc1OC | inactive: -2.03 | inactive: 1.19 | inactive: 0.227
10 | CC(C)NCC(O)COc1ccc(OCCOCCc2ccc(F)cc2)cc1 (stereo unspecified) | inactive: -0.558 | inactive: -0.554 | inactive: -1.71
11 | CCOC(=O)c1ccc2[nH]c3c(OC)c4[nH]c5ccc(C(=O)OCC)cc5c4cc3c2c1 | inactive: 0.612 | inactive: 1.12 | inactive: -0.472
12 | CCc1[nH]c(=O)n(C(=O)c2ccccc2)c1C(=O)c1ccc(-n2ccnc2C)cc1 [analog of CK 3197] | inactive: -1.7 | inactive: 1.58 | inactive: 2.01
13 | CO[C@@H](C(=O)N1Cc2[nH]nc(NC(=O)c3ccc(N4CCN(C)CC4)cc3)c2C1)c1ccccc1 [danusertib] | inactive: -0.804 | inactive: -2.38 | inactive: -2.05
14 | CC1(C)SC2C(NC(=O)C(NC(=O)N3CCNC3=O)c3ccccc3)C(=O)N2C1C(=O)O (stereo unspecified) [azlocillin] | inactive: -1.78 | inactive: -0.92 | inactive: -1.21
15 | Nc1ccc(OS(=O)(=O)O)c(C(=O)O)c1 | inactive: 1.02 | inactive: 0.246 | inactive: 0.864
16 | Cc1cn(C2OCC(O)C2CO)c(=O)[nH]c1=O (stereo unspecified) | inactive: -0.774 | inactive: 0.445 | inactive: -1.14
17 | CC(C)NC(=O)C[C@H]1CCCN(C(=O)c2ccc(N3CCCC3)cc2Cl)c2ccccc21 | inactive: -0.451 | inactive: 1.06 | inactive: 1.79
18 | COc1cc(C(=O)NCCCCCC(=O)O)cc(OC)c1OC | inactive: -1.59 | inactive: 0.422 | inactive: 1.22
19 | CC(=O)OC1CC[C@@]2(C)C(CC[C@]3(C)C2CCC2C4[C@H](C(C)C)CC[C@]4(CCOC(=O)CCC(=O)O)CC[C@]23C)C1(C)C (stereo partly specified) | inactive: -1.55 | inactive: -0.762 | inactive: -0.265
20 | COc1cc(O)c(-c2c(C)cc(OC)c3c(OC)cccc23)c2c1[C@H](C)NC(C)C2 (stereo partly specified) [Ancistrocladine] | inactive: -0.763 |  | inactive: 1.92
21 | COc1cc(O)c(-c2c(C)cc(OC)c3c(OC)cccc23)c2c1[C@H](C)NC(C)C2 (stereo partly specified) |  | inactive: -1.1 | 
22 | O=C(NC1CCN(c2nc3ncccc3o2)C1)C1CCCC1 (stereo unspecified) | inactive: 2 |  | inactive: 2.4
23 | CC[C@H](C)[C@H](NC(=O)[C@H](CCC(=O)O)NC(=O)[C@H](CO)NC(=O)[C@@H](NC(=O)[C@@H](N)CO)C(C)C)C(=O)N[C@@H](CCC(N)=O)C(=O)N[C@@H](CC(C)C)C(=O)N[C@@H](CCSC)C(=O)N[C@@H](Cc1c[nH]cn1)C(=O)N[C@@H](CC(N)=O)C(=O)N[C@@H](CC(C)C)C(=O)NCC(=O)N[C@@H](CCCCN)C(=O)N[C@@H](Cc1c[nH]cn1)C(=O)N[C@@H](CC(C)C)C(=O)N[C@@H](CC(N)=O)C(=O)N[C@@H](CO)C(=O)N[C@@H](CCSC)C(=O)N[C@@H](CCC(=O)O)C(=O)N[C@@H](CCCNC(=N)N)C(=O)N[C@H](C(=O)N[C@@H](CCC(=O)O)C(=O)N[C@@H](Cc1c[nH]c2ccccc12)C(=O)N[C@@H](CC(C)C)C(=O)N[C@@H](CCCNC(=N)N)C(=O)N[C@@H](CCCCN)C(=O)N[C@@H](CCCCN)C(=O)N[C@@H](CC(C)C)C(=O)N[C@@H](CCC(N)=O)C(=O)N[C@@H](CC(=O)O)C(=O)N[C@H](C(=O)N[C@@H](Cc1c[nH]cn1)C(=O)N[C@@H](CC(N)=O)C(=O)N[C@@H](Cc1ccccc1)C(=O)O)C(C)C)C(C)C [Teriparatide] | inactive: -1.02 | inactive: 0.611 | inactive: 0.622
24 | CC[C@H](C)[C@H](NC(=O)[C@H](CO)NC(=O)[C@H](CO)NC(=O)[C@H](CC(C)C)NC(=O)[C@H](CCCCN)NC(=O)[C@H](CCCNC(=N)N)NC(=O)[C@H](CCCNC(=N)N)NC(=O)[C@H](CCCNC(=N)N)NC(=O)[C@H](CCC(N)=O)NC(=O)[C@H](CCCNC(=N)N)NC(=O)[C@H](CCCNC(=N)N)NC(=O)[C@H](CCCCN)NC(=O)[C@H](CCCCN)NC(=O)[C@H](CCCNC(=N)N)NC(=O)CNC(=O)[C@@H](N)Cc1ccc(O)cc1)C(=O)N[C@@H](CCC(=O)O)C(=O)N[C@@H](CO)C(=O)N[C@@H](CC(=O)O)C(=O)N[C@H](C(=O)O)C(C)C | inactive: 1.6 | inactive: 0.123 | inactive: 3.92
25 | Clc1cccc(C(c2ccc3nc[nH]c3c2)n2ccnc2)c1 (stereo unspecified) [liarozole] | inactive: -0.478 | inactive: -1.37 | inactive: 0.89

Looked up above:
Value for CC[C@H](C)[C@H](NC(=O)[C@H](CCC(=O)O)NC(=O)[C@H](CO)NC(=O)[C@@H](NC(=O)[C@@H](N)CO)C(C)C)C(=O)N[C@@H](CCC(N)=O)C(=O)N[C@@H](CC(C)C)C(=O)N[C@@H](CCSC)C(=O)N[C@@H](Cc1c[nH]cn1)C(=O)N[C@@H](CC(N)=O)C(=O)N[C@@H](CC(C)C)C(=O)NCC(=O)N[C@@H](CCCCN)C(=O)N[C@@H](Cc1c[nH]cn1)C(=O)N[C@@H](CC(C)C)C(=O)N[C@@H](CC(N)=O)C(=O)N[C@@H](CO)C(=O)N[C@@H](CCSC)C(=O)N[C@@H](CCC(=O)O)C(=O)N[C@@H](CCCNC(=N)N)C(=O)N[C@H](C(=O)N[C@@H](CCC(=O)O)C(=O)N[C@@H](Cc1c[nH]c2ccccc12)C(=O)N[C@@H](CC(C)C)C(=O)N[C@@H](CCCNC(=N)N)C(=O)N[C@@H](CCCCN)C(=O)N[C@@H](CCCCN)C(=O)N[C@@H](CC(C)C)C(=O)N[C@@H](CCC(N)=O)C(=O)N[C@@H](CC(=O)O)C(=O)N[C@H](C(=O)N[C@@H](Cc1c[nH]cn1)C(=O)N[C@@H](CC(N)=O)C(=O)N[C@@H](Cc1ccccc1)C(=O)O)C(C)C)C(C)C [Teriparatide] under TEAD-luciferase reporter activity (compound concentration: 200 nM): inactive: -1.02
Value for CC(C)NCC(O)COc1ccc(OCCOCCc2ccc(F)cc2)cc1 (stereo unspecified) under TEAD-luciferase reporter activity (compound concentration: 2 uM): inactive: -0.554
